Drawing on article PMC12748187, this text covers binding for two molecules.

In test [1] the target is T1, heat shock cognate B (HSCB) (human (endogenous in THP-1)) (UniProt Q8IWL3).
T1 sequence: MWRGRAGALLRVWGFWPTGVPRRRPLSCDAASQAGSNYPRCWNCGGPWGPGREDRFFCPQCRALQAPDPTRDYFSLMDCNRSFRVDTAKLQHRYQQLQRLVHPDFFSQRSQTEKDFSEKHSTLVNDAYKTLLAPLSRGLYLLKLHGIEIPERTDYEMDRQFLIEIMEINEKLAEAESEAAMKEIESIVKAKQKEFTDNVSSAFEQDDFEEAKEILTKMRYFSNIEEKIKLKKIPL
Nature of the test: co-IP; THP-1 cell lysate supernatant (13,000 g, 30 min, 4°C); 5 ug target antibody or IgG, 4°C 6 h; protein A+G agarose beads overnight at 4°C; western blot; control and LPS-treated cells; which antibody precipitated is not told. (A western blot detects proteins with antibodies after separation by electrophoresis.)

For test [2], the target named is T2, ferredoxin 1 (FDX1) (human (endogenous in THP-1)) (UniProt P10109).
T2 sequence: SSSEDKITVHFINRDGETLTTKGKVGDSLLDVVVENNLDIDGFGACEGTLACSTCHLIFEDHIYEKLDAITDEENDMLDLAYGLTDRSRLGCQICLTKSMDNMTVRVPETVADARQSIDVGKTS
The description is as above.

These are yes or no findings as the source states them, for the method shown. In cells and extracts the contact can be indirect. Some results given as binding are weak or reduced against the parent protein; the word gives no strength.

B1: hexokinase domain containing 1 (HKDC1) (protein, UniProt Q2TB90 1-917)
chain: MFAVHLMAFYFSKLKEDQIKKVDRFLYHMRLSDDTLLDIMRRFRAEMEKGLAKDTNPTAAVKMLPTFVRAIPDGSENGEFLSLDLGGSKFRVLKVQVAEEGKRHVQMESQFYPTPNEIIRGNGTELFEYVADCLADFMKTKDLKHKKLPLGLTFSFPCRQTKLEEGVLLSWTKKFKARGVQDTDVVSRLTKAMRRHKDMDVDILALVNDTVGTMMTCAYDDPYCEVGVIIGTGTNACYMEDMSNIDLVEGDEGRMCINTEWGAFGDDGALEDIRTEFDRELDLGSLNPGKQLFEKMISGLYLGELVRLILLKMAKAGLLFGGEKSSALHTKGKIETRHVAAMEKYKEGLANTREILVDLGLEPSEADCIAVQHVCTIVSFRSANLCAAALAAILTRLRENKKVERLRTTVGMDGTLYKIHPQYPKRLHKVVRKLVPSCDVRFLLSESGSTKGAAMVTAVASRVQAQRKQIDRVLALFQLTREQLVDVQAKMRAELEYGLKKKSHGLATVRMLPTYVCGLPDGTEKGKFLALDLGGTNFRVLLVKIRSGRRSVRMYNKIFAIPLEIMQGTGEELFDHIVQCIADFLDYMGLKGASLPLGFTFSFPCRQMSIDKGTLIGWTKGFKATDCEGEDVVDMLREAIKRRNEFDLDIVAVVNDTVGTMMTCGYEDPNCEIGLIAGTGSNMCYMEDMRNIEMVEGGEGKMCINTEWGGFGDNGCIDDIWTRYDTEVDEGSLNPGKQRYEKMTSGMYLGEIVRQILIDLTKQGLLFRGQISERLRTRGIFETKFLSQIESDRLALLQVRRILQQLGLDSTCEDSIVVKEVCGAVSRRAAQLCGAGLAAIVEKRREDQGLEHLRITVGVDGTLYKLHPHFSRILQETVKELAPRCDVTFMLSEDGSGKGAALITAVAKRLQQAQKEN
Consider B1, for which the binding result in test [1] is reported as “binds”.

B2: heat shock cognate B (HSCB) (protein, UniProt Q8IWL3 1-235)
chain: T1 sequence
On to B2, for which the binding entry in test [2] was “binds”.
